We go through 1 molecule from doi:10.1101/098400 (bioRxiv, 2017).

No constants are given. Whether binding was seen depends on the method and setting. Some binding calls cover weakened binding; strength is not graded here.

In test [1] the target is Rous Sarcoma Virus capsid protein (RSV CA), wild type (Rous Sarcoma Virus (strain Prague C)) (UniProt P03322). Briefly: turbidimetric assay.
For test [2] the target is unchanged. Briefly: SEC. (SEC sorts molecules by how far they enter the pores of the column.)

B1: Rous Sarcoma Virus capsid protein (RSV CA), wild type (natural protein, Rous Sarcoma Virus (strain Prague C), UniProt P03322 240-476, looked up)
chain: PVVIKTEGPAWTPLEPKLITRLADTVRTKGLRSPITMAEVEALMSSPLLPHDVTNLMRVILGPAPYALWMDAWGVQLQTVIAAATRDPRHPANGQGRGERTNLNRLKGLADGMVGNPQGQAALLRPGELVAITASALQAFREVARLAEPAGPWADIMQGPSESFVDFANRLIKAVEGSDLPPSARAPVIIDCFRQKSQPDIQQLIRTAPSTLTTPGEIIKYVLDRQKTAPLTDQGIA
As for B1, the binding entry in test [1] was “binds weakly”; in test [2], “no binding (condition: at 4 °C)”.
